Measured values from paper doi:10.1101/2025.05.21.655143.
No constants are given. Whether binding was seen depends on the method and setting. Binding seen in cells or lysates may run through a third protein. Some entries that bind do so weakly or less than the wild type.

Chains of the proteins cited; added tags and fusions are not shown. Lines headed by an entry give the natural chain unless they say otherwise; changes in a name come on top. A line that says so, or that is headed by a name, gives the form on record, which may keep a tag or linker.
Halo-SPEN-V5 (Q62504, form named): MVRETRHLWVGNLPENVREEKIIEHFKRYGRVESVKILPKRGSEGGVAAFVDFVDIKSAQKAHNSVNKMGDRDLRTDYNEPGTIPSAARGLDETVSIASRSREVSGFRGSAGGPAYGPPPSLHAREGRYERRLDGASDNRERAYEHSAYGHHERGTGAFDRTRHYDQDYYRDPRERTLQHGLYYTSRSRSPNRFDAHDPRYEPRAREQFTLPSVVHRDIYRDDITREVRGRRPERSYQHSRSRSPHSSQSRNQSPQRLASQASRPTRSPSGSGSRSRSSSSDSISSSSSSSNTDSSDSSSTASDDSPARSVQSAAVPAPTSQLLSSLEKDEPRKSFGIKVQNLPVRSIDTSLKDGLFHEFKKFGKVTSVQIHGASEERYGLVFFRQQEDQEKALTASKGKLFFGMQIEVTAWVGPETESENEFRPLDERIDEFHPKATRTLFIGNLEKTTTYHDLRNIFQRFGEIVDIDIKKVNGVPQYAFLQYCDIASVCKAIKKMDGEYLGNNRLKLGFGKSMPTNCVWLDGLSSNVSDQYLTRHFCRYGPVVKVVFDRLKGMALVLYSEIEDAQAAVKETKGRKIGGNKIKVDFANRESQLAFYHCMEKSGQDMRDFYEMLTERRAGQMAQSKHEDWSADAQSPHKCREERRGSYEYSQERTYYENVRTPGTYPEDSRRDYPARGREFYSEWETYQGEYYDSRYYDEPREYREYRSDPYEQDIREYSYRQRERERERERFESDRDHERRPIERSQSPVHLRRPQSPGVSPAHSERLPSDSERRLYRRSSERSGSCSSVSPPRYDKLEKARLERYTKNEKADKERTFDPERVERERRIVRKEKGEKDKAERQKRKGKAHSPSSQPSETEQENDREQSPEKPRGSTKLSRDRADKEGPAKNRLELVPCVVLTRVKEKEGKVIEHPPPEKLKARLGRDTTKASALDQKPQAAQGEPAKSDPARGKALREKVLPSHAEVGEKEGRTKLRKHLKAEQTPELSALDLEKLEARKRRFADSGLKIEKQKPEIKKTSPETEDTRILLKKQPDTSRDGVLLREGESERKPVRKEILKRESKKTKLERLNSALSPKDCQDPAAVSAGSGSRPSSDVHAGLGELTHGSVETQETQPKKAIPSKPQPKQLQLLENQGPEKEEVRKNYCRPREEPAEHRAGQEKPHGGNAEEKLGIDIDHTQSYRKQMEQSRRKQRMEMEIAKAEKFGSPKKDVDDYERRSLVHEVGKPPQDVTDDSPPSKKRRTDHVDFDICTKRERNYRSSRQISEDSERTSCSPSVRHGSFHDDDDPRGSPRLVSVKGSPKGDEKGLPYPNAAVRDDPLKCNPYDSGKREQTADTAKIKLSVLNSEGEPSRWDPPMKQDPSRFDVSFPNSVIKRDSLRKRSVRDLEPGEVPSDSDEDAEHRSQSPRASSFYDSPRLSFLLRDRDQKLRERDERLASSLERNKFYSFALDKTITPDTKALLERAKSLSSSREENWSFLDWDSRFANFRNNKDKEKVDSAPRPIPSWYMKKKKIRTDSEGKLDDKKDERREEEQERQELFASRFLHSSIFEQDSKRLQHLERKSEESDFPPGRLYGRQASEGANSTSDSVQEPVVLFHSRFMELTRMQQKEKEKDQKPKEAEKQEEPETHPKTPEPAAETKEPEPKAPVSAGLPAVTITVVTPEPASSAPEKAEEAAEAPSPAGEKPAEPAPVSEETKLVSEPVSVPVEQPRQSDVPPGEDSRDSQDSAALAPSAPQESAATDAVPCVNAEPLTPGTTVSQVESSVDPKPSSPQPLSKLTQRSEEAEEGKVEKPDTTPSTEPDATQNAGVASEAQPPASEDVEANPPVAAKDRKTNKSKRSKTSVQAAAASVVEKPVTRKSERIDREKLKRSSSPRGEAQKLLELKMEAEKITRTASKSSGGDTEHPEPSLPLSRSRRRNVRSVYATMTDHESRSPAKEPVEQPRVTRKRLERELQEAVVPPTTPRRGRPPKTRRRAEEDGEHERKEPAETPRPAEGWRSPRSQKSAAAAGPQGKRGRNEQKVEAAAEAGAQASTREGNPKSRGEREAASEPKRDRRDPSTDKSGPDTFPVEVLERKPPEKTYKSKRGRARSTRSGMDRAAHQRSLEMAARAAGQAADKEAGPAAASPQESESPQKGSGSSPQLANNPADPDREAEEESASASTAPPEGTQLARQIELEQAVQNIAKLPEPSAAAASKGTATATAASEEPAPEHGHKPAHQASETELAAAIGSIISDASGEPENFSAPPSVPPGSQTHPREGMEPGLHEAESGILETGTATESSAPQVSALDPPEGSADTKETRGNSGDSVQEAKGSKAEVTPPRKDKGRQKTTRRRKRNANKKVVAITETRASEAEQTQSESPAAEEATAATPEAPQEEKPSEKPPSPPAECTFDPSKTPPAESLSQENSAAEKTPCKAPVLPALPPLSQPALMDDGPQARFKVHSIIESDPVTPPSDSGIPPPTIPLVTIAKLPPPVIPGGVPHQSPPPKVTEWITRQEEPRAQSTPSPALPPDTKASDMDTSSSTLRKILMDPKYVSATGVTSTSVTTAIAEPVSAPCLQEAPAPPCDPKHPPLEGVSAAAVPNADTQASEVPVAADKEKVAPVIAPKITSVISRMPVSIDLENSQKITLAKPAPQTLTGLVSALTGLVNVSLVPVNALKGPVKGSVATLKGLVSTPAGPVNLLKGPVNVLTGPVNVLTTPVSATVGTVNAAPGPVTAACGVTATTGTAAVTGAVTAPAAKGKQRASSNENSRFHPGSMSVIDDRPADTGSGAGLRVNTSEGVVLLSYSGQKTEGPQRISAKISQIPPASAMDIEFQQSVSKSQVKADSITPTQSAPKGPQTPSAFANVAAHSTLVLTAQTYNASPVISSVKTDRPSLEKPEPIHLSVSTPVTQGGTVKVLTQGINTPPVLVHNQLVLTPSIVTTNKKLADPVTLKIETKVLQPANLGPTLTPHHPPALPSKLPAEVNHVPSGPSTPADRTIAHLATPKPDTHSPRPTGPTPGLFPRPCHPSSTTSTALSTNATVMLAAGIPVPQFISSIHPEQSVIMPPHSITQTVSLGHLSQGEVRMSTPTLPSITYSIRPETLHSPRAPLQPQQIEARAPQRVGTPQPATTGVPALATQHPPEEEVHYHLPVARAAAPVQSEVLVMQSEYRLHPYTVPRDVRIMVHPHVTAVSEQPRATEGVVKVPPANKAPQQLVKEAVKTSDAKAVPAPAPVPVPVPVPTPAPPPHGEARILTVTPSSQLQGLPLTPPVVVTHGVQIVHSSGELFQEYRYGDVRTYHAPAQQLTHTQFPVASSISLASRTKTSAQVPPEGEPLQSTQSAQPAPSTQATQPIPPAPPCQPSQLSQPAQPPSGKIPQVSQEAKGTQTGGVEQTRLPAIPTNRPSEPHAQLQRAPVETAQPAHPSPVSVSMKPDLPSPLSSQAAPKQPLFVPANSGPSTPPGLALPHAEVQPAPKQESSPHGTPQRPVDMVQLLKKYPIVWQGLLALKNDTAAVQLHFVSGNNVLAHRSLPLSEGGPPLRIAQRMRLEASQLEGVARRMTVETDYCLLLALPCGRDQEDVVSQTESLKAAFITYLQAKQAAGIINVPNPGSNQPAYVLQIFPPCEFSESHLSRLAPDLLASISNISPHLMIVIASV
UniProt Q6PDM2: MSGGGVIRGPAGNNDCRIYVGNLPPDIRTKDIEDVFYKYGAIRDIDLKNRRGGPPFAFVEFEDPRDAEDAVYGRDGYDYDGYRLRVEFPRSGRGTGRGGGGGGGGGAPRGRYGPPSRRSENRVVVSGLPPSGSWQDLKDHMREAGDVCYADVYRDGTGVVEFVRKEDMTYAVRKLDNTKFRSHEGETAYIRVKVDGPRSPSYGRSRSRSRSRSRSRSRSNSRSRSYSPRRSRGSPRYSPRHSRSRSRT

Target: Halo-SPEN-V5 (mouse) (UniProt Q62504)
Experiment: co-IP

- binding: binds
Substance: SRSF1 (from UniProt Q6PDM2 1-248)
